Measurements reported in PubChem BioAssay AID1671195 (Yale University, 2021).
Assay: 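Genes whose knockdown alters LDL uptake in liver cancer cells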 (primary screen). System: human Huh7 hepatoma cells. Knock-down reagent: siRNA pool against human genes, 18 nM. Time to read-out: about 2 to 2.5 days of knockdown, then 8 h LDL uptake. Challenge: DiI-labelled LDL at 30 µg/ml for 8 h, in lipoprotein-deficient serum medium. Measured: 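Fluorescent LDL signal imaged in cells, scaled to the plate median, robust z-score for each replicate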. Direction: robust z-score: higher = more LDL uptake after knockdown. Call rule: 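a gene counts as active if at least two replicate z-scores exceed ±2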.
Here is one part, drawn at random, of about 22,000 reagents. Over the whole deposit, about 1,510 (6.9%) are marked active. 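Active includes knockdowns raising or lowering LDL uptake; positive z-scores mean more uptake, negative mean less.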 A number with no mark means an inactive call. Reagent sequences are not shown.

target	robust z-score, replicate 1	robust z-score, replicate 2	robust z-score, replicate 3
TRAF3 (GeneID 7187)	0.271	-1.06	-0.924
ZC3H7B (GeneID 23264)	0.656	-0.573	1.9
FPGS (GeneID 2356)	0.037	0.343	0.378
DEUP1 (GeneID 159989)	1.07	1.9	1.03
HLA-E (GeneID 3133)	-0.234	-0.0639	-0.0189
PCSK7 (GeneID 9159)	-0.871	0.563	-0.41
RAB29 (GeneID 8934)	-0.322	-0.686	-0.458
LOC442180 (retired record) (GeneID 442180)	-0.781	-0.536	-0.733
CRIPT (GeneID 9419)	1.98 (active)	3.85	2.38
DHX34 (GeneID 9704)	0.102	-1.77	-0.0477
NUBP2 (GeneID 10101)	-1.22	-0.777	-0.832
COPS4 (GeneID 51138)	-0.331	-1.27	0.0933
DPEP1 (GeneID 1800)	-0.415	0.00312	-0.254
KLK6 (GeneID 5653)	-0.372	-0.303	0.0543
ZNF567 (GeneID 163081)	-0.143	-0.0311	-0.381
YIPF1 (GeneID 54432)	-0.503	-0.00636	0.32
SPANXN4 (GeneID 441525)	-0.326	-0.753	-0.582
LOC285703 (retired record) (GeneID 285703)	-1.48	-1.36	-1.32
CCDC61 (GeneID 729440)	-0.591	-0.338	-0.0884

Part of the list above, limited to “robust z-score, replicate 3”:
FPGS (GeneID 2356): 0.378
DEUP1 (GeneID 159989): 1.03
HLA-E (GeneID 3133): -0.0189
PCSK7 (GeneID 9159): -0.41
RAB29 (GeneID 8934): -0.458

The listing continues:
target	robust z-score, replicate 1	robust z-score, replicate 2	robust z-score, replicate 3
SPANXN1 (GeneID 494118)	-0.335	-0.363	-0.177
CD209 (GeneID 30835)	-0.696	-0.138	-1.53
AGTR1 (GeneID 185)	2.01	0.412	1.22
GPR157 (GeneID 80045)	-0.34	-0.272	-0.782
SI (GeneID 6476)	-1.4	-1	-1.27
NAA60 (GeneID 79903)	-0.773	-0.817	-0.546
DPPA2 (GeneID 151871)	-0.197	0.744	-0.601
UBXN1 (GeneID 51035)	-0.889	-1.07	-3.08
SLFN12L (GeneID 100506736)	-0.6	-0.708	-0.525
CCDC26 (GeneID 137196)	-0.844	-1.08	-0.451
CELA2B (GeneID 51032)	0.933	-1.93	1.51
